Results taken from article PMC8396726.
Results are given in words; binding and its absence hold for the method and conditions named. Binding seen in cells or lysates may run through a third protein. These calls come from enrichment with a bait or labelling near it, and not all partners need be listed. For some assays here: A no says only that the protein was not detected with the bait. For some assays here: Tags and fused reporters may be left off the sequences shown.

By UniProt entry, the sequences of proteins in these tests, tags left out.
UniProt Q8IB67: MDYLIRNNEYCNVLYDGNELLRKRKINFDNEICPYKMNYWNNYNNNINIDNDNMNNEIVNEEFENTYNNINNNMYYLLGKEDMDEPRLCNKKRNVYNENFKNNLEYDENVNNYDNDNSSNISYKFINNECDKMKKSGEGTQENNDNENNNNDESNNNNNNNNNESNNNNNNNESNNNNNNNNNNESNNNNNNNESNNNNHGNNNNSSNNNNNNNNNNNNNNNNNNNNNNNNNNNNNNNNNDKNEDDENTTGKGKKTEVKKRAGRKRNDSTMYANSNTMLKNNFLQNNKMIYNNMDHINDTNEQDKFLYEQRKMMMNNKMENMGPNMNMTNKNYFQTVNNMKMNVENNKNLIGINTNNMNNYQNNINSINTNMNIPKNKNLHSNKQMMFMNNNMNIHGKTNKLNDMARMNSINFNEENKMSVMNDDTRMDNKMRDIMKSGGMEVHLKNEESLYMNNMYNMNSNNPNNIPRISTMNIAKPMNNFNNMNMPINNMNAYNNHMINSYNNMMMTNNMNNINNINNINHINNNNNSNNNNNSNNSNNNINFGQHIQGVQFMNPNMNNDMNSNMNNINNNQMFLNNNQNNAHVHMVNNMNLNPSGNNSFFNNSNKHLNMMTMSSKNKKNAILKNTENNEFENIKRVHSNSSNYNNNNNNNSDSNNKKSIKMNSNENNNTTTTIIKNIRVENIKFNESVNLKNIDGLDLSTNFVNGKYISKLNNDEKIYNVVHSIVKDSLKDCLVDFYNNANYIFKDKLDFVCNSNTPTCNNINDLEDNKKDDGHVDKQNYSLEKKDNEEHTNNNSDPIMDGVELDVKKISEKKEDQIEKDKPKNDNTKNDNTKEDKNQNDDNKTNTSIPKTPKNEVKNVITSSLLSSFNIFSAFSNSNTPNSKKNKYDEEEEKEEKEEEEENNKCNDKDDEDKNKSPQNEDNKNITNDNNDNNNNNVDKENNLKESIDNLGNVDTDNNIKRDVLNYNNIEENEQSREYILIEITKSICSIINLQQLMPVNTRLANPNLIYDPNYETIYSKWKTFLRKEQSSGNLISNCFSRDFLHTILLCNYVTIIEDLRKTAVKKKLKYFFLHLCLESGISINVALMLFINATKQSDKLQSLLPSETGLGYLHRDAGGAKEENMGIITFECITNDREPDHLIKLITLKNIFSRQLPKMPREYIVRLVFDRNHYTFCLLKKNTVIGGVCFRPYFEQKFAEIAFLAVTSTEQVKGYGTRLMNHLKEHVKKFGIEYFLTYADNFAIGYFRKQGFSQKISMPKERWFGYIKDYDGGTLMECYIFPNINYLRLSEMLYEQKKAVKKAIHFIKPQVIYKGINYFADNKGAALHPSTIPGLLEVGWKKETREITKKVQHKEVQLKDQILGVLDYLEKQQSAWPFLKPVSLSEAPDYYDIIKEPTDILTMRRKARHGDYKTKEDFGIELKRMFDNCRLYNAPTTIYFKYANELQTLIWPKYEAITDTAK
UniProt Q8IJW2: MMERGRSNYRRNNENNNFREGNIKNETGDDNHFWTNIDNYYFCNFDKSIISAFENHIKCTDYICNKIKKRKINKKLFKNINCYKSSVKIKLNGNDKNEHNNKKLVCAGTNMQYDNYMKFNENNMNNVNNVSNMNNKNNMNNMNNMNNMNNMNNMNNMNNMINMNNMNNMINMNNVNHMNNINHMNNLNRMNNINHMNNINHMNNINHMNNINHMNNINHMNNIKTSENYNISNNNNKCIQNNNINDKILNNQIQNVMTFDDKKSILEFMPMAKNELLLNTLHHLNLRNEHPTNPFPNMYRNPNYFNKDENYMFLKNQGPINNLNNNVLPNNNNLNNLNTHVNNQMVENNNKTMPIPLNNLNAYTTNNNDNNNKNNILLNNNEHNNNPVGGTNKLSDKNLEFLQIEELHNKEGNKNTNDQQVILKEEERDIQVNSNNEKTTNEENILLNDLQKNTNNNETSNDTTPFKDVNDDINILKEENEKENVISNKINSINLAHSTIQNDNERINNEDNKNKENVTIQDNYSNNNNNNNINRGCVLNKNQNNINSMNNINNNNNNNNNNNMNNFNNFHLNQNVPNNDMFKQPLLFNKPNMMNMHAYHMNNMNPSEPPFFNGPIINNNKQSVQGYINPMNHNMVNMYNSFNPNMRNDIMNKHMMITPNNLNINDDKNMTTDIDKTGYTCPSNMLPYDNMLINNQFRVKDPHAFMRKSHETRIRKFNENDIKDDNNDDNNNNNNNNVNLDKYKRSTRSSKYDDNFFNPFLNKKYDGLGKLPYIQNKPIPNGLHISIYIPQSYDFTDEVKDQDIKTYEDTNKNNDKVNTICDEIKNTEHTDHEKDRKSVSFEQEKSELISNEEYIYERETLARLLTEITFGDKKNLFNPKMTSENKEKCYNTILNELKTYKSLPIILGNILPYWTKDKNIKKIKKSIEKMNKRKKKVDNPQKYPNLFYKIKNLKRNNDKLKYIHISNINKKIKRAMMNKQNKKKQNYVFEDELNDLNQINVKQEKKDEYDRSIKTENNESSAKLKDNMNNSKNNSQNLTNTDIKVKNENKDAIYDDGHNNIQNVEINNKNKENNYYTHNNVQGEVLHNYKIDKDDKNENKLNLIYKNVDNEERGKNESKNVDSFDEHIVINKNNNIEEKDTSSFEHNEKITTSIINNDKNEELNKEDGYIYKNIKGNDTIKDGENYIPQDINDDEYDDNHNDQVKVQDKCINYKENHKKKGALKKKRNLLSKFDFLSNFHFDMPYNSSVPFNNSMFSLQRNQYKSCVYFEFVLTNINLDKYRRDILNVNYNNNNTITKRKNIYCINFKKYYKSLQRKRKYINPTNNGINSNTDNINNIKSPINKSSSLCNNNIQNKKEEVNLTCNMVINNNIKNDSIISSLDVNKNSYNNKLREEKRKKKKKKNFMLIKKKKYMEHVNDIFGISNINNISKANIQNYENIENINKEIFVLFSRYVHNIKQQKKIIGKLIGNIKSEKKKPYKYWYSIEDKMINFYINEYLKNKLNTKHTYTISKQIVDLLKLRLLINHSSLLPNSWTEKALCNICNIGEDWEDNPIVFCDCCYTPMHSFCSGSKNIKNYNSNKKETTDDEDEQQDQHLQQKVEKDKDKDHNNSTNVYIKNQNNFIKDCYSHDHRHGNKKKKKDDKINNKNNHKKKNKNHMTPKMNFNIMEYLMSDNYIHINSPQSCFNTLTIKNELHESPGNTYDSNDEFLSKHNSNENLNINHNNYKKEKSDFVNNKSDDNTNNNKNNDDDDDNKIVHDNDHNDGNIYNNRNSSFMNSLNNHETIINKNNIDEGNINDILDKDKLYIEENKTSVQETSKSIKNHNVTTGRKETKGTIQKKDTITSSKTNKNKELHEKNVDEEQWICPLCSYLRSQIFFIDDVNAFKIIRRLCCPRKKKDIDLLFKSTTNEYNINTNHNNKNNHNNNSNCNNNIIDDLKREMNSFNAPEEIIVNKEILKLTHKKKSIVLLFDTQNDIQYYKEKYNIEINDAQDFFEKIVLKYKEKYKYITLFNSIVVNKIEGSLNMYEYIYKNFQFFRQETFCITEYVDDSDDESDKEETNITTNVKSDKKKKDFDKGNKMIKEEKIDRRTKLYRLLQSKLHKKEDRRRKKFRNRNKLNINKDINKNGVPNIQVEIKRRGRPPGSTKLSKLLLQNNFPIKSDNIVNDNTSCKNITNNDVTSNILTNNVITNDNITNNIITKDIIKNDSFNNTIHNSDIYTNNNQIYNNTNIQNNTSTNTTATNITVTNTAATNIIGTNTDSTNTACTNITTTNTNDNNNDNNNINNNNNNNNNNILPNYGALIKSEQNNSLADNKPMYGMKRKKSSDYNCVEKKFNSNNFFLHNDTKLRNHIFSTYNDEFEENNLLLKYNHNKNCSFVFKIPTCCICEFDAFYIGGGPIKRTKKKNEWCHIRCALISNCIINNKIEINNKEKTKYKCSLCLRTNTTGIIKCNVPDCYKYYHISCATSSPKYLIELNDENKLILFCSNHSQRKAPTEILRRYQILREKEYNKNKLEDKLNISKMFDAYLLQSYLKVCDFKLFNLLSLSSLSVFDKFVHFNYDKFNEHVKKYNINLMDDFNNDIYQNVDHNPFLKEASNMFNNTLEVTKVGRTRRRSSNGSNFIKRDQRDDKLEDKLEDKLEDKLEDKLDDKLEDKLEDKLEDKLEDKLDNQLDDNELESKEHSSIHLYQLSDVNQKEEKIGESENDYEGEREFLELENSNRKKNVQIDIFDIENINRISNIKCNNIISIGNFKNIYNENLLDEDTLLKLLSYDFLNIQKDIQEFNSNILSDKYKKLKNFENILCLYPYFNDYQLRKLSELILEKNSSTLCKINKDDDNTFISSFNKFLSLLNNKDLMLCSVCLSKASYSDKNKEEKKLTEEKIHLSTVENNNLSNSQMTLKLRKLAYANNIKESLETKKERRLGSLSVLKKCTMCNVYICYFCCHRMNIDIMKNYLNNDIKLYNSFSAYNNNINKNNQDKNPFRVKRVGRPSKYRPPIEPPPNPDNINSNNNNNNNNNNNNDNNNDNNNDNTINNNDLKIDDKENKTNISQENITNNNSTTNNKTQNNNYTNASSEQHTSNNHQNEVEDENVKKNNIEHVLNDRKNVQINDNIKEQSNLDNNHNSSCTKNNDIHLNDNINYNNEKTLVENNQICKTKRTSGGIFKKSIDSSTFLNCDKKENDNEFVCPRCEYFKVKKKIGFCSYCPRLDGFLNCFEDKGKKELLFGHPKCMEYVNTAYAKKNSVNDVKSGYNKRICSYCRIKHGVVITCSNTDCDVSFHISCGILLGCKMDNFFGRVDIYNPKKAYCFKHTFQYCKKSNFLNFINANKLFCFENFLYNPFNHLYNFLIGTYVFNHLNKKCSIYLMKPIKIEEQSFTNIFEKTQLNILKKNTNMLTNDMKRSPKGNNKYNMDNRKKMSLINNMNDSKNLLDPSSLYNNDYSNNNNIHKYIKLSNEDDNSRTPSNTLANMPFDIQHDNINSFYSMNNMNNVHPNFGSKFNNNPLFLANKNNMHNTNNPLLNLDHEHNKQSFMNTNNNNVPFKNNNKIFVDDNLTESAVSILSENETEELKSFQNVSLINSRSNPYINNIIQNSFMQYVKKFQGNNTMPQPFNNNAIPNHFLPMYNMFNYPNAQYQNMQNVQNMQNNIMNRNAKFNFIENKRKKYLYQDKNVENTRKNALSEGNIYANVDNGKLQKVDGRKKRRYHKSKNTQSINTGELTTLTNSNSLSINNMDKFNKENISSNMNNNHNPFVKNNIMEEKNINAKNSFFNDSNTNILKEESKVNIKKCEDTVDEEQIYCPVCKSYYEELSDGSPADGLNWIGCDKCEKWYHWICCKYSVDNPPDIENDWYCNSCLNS

Tests used:
[1] = molecular target: PfGCN5-ΔBrD::GFP (P. falciparum 3D7); experiment: affinity purification with mass spectrometry; IP with GFP-Trap from trophozoite nuclear extracts of the PfGCN5::GFP, GCN5-ΔBrD::GFP and PHD1-ΔPHD::GFP lines; LC-MS/MS; SAINT probability >94%, FDR <1%
[2] = molecular target: PfPHD1-ΔPHD::GFP (P. falciparum 3D7); experiment: as above
[3] = molecular target: PfGCN5::GFP (P. falciparum) (UniProt Q8IB67); experiment: as above
[4] = molecular target: PfPHD1::Myc (P. falciparum 3D7) (UniProt Q8IJW2); experiment: affinity purification with mass spectrometry; single-step pulldown with Myc-trap beads from trophozoite nuclear extracts of PfPHD1::Myc parasites; LC-MS/MS; SAINT probability >94%, 1% FDR; WT 3D7 as control
[5] = molecular target: T1, PF3D7_1019700::GFP (P. falciparum 3D7) (UniProt Q8IJK5); experiment: affinity purification with mass spectrometry; single-step IP with anti-GFP (GFP-trap) beads from nuclear extracts of PF3D7_1019700::GFP parasites; LC-MS/MS; two replicates; SAINT probability >94%, 1% FDR; WT 3D7 as control
T1 sequence: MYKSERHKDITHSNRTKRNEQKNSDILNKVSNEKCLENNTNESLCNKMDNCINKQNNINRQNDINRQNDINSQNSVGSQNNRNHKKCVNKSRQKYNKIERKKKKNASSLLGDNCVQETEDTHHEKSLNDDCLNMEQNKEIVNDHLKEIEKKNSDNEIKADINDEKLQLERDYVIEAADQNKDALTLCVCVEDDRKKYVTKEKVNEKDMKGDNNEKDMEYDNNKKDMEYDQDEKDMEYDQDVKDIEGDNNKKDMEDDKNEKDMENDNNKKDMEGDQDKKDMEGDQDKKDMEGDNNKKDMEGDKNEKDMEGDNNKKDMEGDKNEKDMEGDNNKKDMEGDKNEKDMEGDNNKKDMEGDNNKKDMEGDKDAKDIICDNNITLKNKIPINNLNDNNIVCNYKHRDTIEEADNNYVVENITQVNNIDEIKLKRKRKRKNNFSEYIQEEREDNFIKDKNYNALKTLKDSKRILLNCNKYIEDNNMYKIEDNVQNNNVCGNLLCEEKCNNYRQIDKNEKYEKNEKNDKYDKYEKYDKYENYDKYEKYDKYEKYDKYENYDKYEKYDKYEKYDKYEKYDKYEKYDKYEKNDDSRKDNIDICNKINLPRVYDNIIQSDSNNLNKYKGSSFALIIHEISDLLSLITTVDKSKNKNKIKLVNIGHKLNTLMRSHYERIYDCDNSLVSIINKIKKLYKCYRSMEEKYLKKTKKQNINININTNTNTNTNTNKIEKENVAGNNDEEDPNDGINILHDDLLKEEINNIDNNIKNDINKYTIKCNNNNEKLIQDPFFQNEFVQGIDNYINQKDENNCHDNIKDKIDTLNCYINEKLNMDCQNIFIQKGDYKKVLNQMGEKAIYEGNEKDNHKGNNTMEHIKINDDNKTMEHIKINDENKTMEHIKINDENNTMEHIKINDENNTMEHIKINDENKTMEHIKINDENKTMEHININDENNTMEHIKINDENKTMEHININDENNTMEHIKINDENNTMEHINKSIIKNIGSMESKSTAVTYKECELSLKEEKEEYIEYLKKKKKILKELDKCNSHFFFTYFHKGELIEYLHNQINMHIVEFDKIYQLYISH

B1: bromodomain protein 1 (BDP1) (protein, UniProt Q8IJ72 1-488)
chain: MMLEDFNTLPLIKSIREDSLDDVLKFLENNYKDYEVNENGEAKKTIELVDKQTQATPLFYVTARKSDEESVEISKLIIEKYAICNPISKDLMKQTCLFYAAREGHLNLCNYLIEKGCNPNDQDNFGQTCLFYASREGKTDCVLTLIKKGANPNLLDLNKQTCLFYACRDGRYDTVKCLLENGVNPSIKDAQRRTALTFAKGNGHNNIINLLKNVGTLSRSSIDSNAQLGNITMLRRNSSSYIAASSPNESNLNNLTVQAENVSNVNLKTEDNQLRKKYKLQYKPLSDEDPLLWVDAPLIKIKEFERKFPELALWPRNVSQSNVEVNNANDAFNKQWYLLANQLILSLSKYEGGHIFEKLVDAKKQNCPDYYDVIKNPMSFSCIKTKLKKGQYAYPSEFVKDVQLIFDNCSLYNTSNSVVAITGKNIETYFNNQLIVMGYNNFILKEKKINDMLKLVEEENIKWSKEKEDQIEEIDELENNQEDSSKKD
Q: For B1, which binding [1] is on record?
A: no binding

Q: What about the binding [2] of the same binder?
A: no binding

Q: And the binding [3]?
A: binds

Q: And the binding [4]?
A: binds

Q: What about the binding [5] of the same binder?
A: binds
